The list is a part of this screen's results and no random one: it is rich in T/C values a quarter to a half above the control, in often repeated tests (any T/C) and in doses without a T/C. Further doses and runs are listed elsewhere. T/C is the treated group as % of the vehicle group. Some entries give survivors of the animals treated and no T/C: the source holds a T/C of zero for them, seemingly a mark for toxic or unscored doses. Some survivor counts are full or nearly so, which does not show that the dose was tolerated: survival well below the control is almost never listed, so the zero probably covers shortened survival too. Survivors were counted at the toxicity check, usually on the fifth day, unless a day is given; later deaths do not show. Schedules are NCI's codes, read here as Q, the interval in days (D) or hours (H), X, the number of doses. Some molecules as drawn cover several salts, stereoisomers or complexes of the source; a dose is that of the sample tested. Some entries were tested several times; the values are given in rising order. For survival time, the PubChem record calls one and a half times the control and up active, and a quarter to a half above the control has no call in these data; cut-offs in other NCI protocols can differ. Some T/C values are followed by the survivors on the day toxicity was checked, most often the fifth; where none is given, no animal had died by that day.

In this test the test system is P388 leukemia ip, CD2F1 mice, survival T/C. The experiment in a line: NCI In Vivo Anticancer Drug Screen. Data for tumor model P388 Leukemia (intraperitoneal) in CD2F1 (CDF1) mice. The note with it: T/C endpoint: median survival time, higher T/C = longer survival.
The mark [1] stands for this setting: dose: 200.0 mg/kg/injection, schedule: Q01DX005 (ip), vehicle: saline with Tween-80.
[2] abbreviates: dose: 50.0 mg/kg/injection, schedule: Q01DX009 (ip), vehicle: saline.
The mark [3] stands for this setting: dose: 100.0 mg/kg/injection, schedule: Q01DX009 (ip), vehicle: saline.
The mark [4] stands for this setting: dose: 200.0 mg/kg/injection, schedule: Q01DX009 (ip), vehicle: saline.
Setting [5] is: dose: 25.0 mg/kg/injection, schedule: Q01DX005 (ip), vehicle: saline with Tween-80.
The mark [6] stands for this setting: dose: 50.0 mg/kg/injection, schedule: Q01DX005 (ip), vehicle: saline with Tween-80.
Where [7] appears, read: dose: 100.0 mg/kg/injection, schedule: Q01DX005 (ip), vehicle: saline with Tween-80.
Setting [8] is: dose: 100.0 mg/kg/injection, schedule: Q01DX009 (ip), vehicle: Klucel (hydroxypropylcellulose) (HPC).
Where [9] appears, read: dose: 200.0 mg/kg/injection, schedule: Q01DX009 (ip), vehicle: Klucel (hydroxypropylcellulose) (HPC).
Where [10] appears, read: dose: 32.0 micrograms/kg/injection, schedule: Q01DX009 (ip), vehicle: saline.
[11] abbreviates: dose: 25.0 mg/kg/injection, schedule: Q01DX009 (ip), vehicle: saline with Tween-80.
Setting [12] is: dose: 200.0 mg/kg/injection, schedule: Q01DX009 (ip), vehicle: saline with Tween-80.

For the compound `Cc1nc2ccccc2[n]1[Sn]([CH3])([CH3])[n]1c(C)nc2ccccc21`, the survivor count by setting is: (dose: 100.0 mg/kg/injection, schedule: Q01DX005 (ip), vehicle: Klucel (hydroxypropylcellulose) (HPC)) 2 of 6; (dose: 200.0 mg/kg/injection, schedule: Q01DX005 (ip), vehicle: Klucel (hydroxypropylcellulose) (HPC)) 0 of 6.
`CSc1nccc(=O)n1-c1ccccc1Cl`: the survivor count (dose: 400.0 mg/kg/injection, schedule: Q04DX003 (ip), vehicle: saline with Tween-80) is 0 of 6.
On to `N#COc1ccc(-c2ccccc2)cc1`, for which, under “dose: 120.0 mg/kg/injection, schedule: Q01DX005 (ip), vehicle: saline with Tween-80”, the survivor count was 6 of 6.
Take `Cc1ccc2nc(N/N=C/c3ccccn3)cc(C)c2c1`: the T/C under setting [1] is 125 [5 of 6 alive] and 137 % of control. The survivor count is reported as 3 of 6 (dose: 300.0 mg/kg/injection, schedule: Q01DX005 (ip), vehicle: saline with Tween-80) and 0 of 6 (dose: 400.0 mg/kg/injection, schedule: Q01DX005 (ip), vehicle: saline with Tween-80).
For the compound `C[C](C)(C)[Sn](=[O])[C](C)(C)C`, the survivor count is, setting by setting: under setting [2], 0 of 6; under setting [3], 0 of 6; under setting [4], 0 of 6.
As to `CSCCC(N)C(=O)OCN1C(=O)C2C3C=CC(C2C1=O)C1C2C(=O)N(COC(=O)C(N)CCSC)C(=O)C2C31` (configuration not stated), the T/C under setting [2] was 129 % of control. Under setting [4], the survivor count is 6 of 6.
Turning to `CCN1/C(=C/C=C/C=C/c2oc3ccccc3[n+]2CC)Oc2ccccc21`, the survivor count reads like this: (dose: 6.25 mg/kg/injection, schedule: Q01DX009 (ip), vehicle: suspension in saline) 0 of 6; (dose: 12.5 mg/kg/injection, schedule: Q01DX009 (ip), vehicle: suspension in saline) 0 of 6; (dose: 25.0 mg/kg/injection, schedule: Q01DX009 (ip), vehicle: suspension in saline) 0 of 6; under setting [2], 0 of 6; under setting [3], 0 of 6; under setting [4], 0 of 6.
For the compound `CCCCCCCCCCCCCCCCCCOCC(COP(=O)([O-])OCC[N+](C)(C)C)OC` (configuration not stated), the T/C reads like this: under setting [5], 125 % of control; under setting [6], 142 and 147 % of control. The survivor count is on record as 6 of 6 under setting [2], 0 of 5 under setting [7] and 0 of 5 under setting [1].
As to `O=[N+]([O-])C(Br)(Br)S(=O)(=O)c1ccccc1`, the survivor count under setting [1] is recorded as 3 of 6.
As for `COc1cc2c(c(OC)c1OC)-c1ccc(OC)c(=O)cc1C(NC(=O)COc1ccccc1)CC2` (configuration not stated), the T/C runs as follows: (dose: 0.31 mg/kg/injection, schedule: Q01DX009 (ip), vehicle: Klucel (hydroxypropylcellulose) (HPC)) 130 % of control; (dose: 0.63 mg/kg/injection, schedule: Q01DX009 (ip), vehicle: Klucel (hydroxypropylcellulose) (HPC)) 136 % of control. For the same compound, the survivor count is, setting by setting: (dose: 5.0 mg/kg/injection, schedule: Q01DX009 (ip), vehicle: Klucel (hydroxypropylcellulose) (HPC)) 5 of 6; (dose: 10.0 mg/kg/injection, schedule: Q01DX009 (ip), vehicle: Klucel (hydroxypropylcellulose) (HPC)) 0 of 6; (dose: 20.0 mg/kg/injection, schedule: Q01DX009 (ip), vehicle: Klucel (hydroxypropylcellulose) (HPC)) 0 of 6.
In the case of `N=c1nc(N)ncn1-c1ccccc1`, where the note is “dose: 6.25 mg/kg/injection, schedule: Q01DX005 (ip), vehicle: saline with Tween-80”, the T/C is 139 % of control. The survivor count is reported as 3 of 5 under setting [5], 0 of 5 under setting [6], 0 of 5 under setting [7] and 0 of 5 under setting [1].
As for `COC(=O)Cc1cccc2c(=O)cc(-c3cccs3)oc12`, the T/C under setting [4] is 135 % of control [5 of 6 alive].
Turning to `C/C(=N\N=P(c1ccccc1)(c1ccccc1)c1ccccc1)C(C)(C)C`, the survivor count was 3 of 6 (dose: 50.0 mg/kg/injection, schedule: Q01DX009 (ip), vehicle: Klucel (hydroxypropylcellulose) (HPC)); 0 of 6 under setting [8]; 0 of 6 under setting [9].
For the compound `CCOc1c(N=Nc2cccc(Cl)c2)c(C)nn1C(=S)S`, the survivor count is, setting by setting: (dose: 60.0 mg/kg/injection, schedule: Q01DX005 (ip), vehicle: Klucel + Tween-80) 0 of 6 and 1 of 6; (dose: 120.0 mg/kg/injection, schedule: Q01DX005 (ip), vehicle: Klucel + Tween-80) 0 of 6; (dose: 240.0 mg/kg/injection, schedule: Q01DX005 (ip), vehicle: Klucel + Tween-80) 0 of 6.
Regarding `COc1cccc2c1C(=O)c1c(O)c3c(c(O)c1C2=O)[C@@H](OC)[C@@](O)(C(C)=O)C[C@@H]3OC1CC(N)C(O)C(C)O1` (some centres not stated), the T/C (dose: 12.5 mg/kg/injection, schedule: Q04DX003 (ip), vehicle: saline) was 133 % of control [4 of 6 alive]. The survivor count (dose: 25.0 mg/kg/injection, schedule: Q04DX003 (ip), vehicle: saline) was 1 of 6 and the survivor count (dose: 50.0 mg/kg/injection, schedule: Q04DX003 (ip), vehicle: saline) was 0 of 6.
Regarding `CCC(C)C(=O)OC1CCC=C2C=CC(C)C(CCC3CC(O)CC(=O)O3)C21` (configuration not stated), the survivor count (dose: 120.0 mg/kg/injection, schedule: Q01DX009 (ip), vehicle: saline) is 6 of 6.
Turning to `C=C(C)C(=O)N(C)C(C)C(=O)OC1CC(=O)N(C)c2cc(cc(OC)c2Cl)C(OC)C(C)=C/C=C/C(OC)C2(O)CC(OC(=O)N2)C(C)C2OC12C` (configuration not stated), the T/C (dose: 8.0 micrograms/kg/injection, schedule: Q01DX009 (ip), vehicle: saline) is 127 % of control. Moreover, under setting [10], the T/C was 145 % of control and the survivor count is listed as 5 of 6.
As for `Cc1c(-c2ccccc2)ccnc1/C=N/NC(=S)Nc1ccc(N(C)C)cc1`, the T/C is 126 % of control (dose: 6.25 mg/kg/injection, schedule: Q01DX009 (ip), vehicle: saline with Tween-80); 128 [5 of 6 alive] and 131 % of control (dose: 12.5 mg/kg/injection, schedule: Q01DX009 (ip), vehicle: saline with Tween-80); 134 % of control under setting [11]. Also, the survivor count is listed as 6 of 6 under setting [11]; 0 of 6 (dose: 50.0 mg/kg/injection, schedule: Q01DX009 (ip), vehicle: saline with Tween-80); 0 of 6 (dose: 100.0 mg/kg/injection, schedule: Q01DX009 (ip), vehicle: saline with Tween-80); 0 of 6 under setting [12].
With `O=C(NC(=O)c1cccc2ccccc12)NC(=S)c1ccc(Br)cc1`, the survivor count (dose: 100.0 mg/kg/injection, schedule: Q01DX001 (ip), vehicle: saline) is 5 of 6; the survivor count (dose: 200.0 mg/kg/injection, schedule: Q01DX001 (ip), vehicle: saline) is reported as 6 of 6; the survivor count (dose: 400.0 mg/kg/injection, schedule: Q01DX001 (ip), vehicle: saline) was 5 of 6.
As for `O=C(CCl)N1CC2CCC(CC2)C1`, the survivor count under setting [12] is reported as 2 of 6.
As for `Cn1c(=O)c2nc(-c3ccc(Cl)c(Cl)c3)c(-c3ccc(Cl)c(Cl)c3)nc2n(C)c1=O`, the survivor count (dose: 100.0 mg/kg/injection, schedule: Q01DX001 (ip), vehicle: saline with Tween-80) is on record as 6 of 6.
As to `CN1CCC(O)(C(=O)c2ccccc2)CC1`, under “dose: 400.0 mg/kg/injection, schedule: Q04DX002 (ip), vehicle: saline”, the survivor count was 2 of 6 and 4 of 6.
Consider `S=c1nc[nH]c2c1ncn2C1C=CC=CC=C1`, for which, under setting [1], the survivor count was 1 of 6.
In the case of `Oc1cccc(/C=N/N=C/c2cccc(O)c2O)c1O`, the survivor count under setting [9] is listed as 6 of 6.
As for `Cc1ccc2c3c1CCCN3CCC2`, for the setting “dose: 200.0 mg/kg/injection, schedule: Q04DX003 (ip), vehicle: saline”, the survivor count is reported as 1 of 6.
In the case of `Cc1ccc(NC(=S)SCc2ccc(Cl)cc2)cc1Br`, the T/C by setting is: under setting [8], 125 % of control; (dose: 400.0 mg/kg/injection, schedule: Q01DX009 (ip), vehicle: Klucel (hydroxypropylcellulose) (HPC)) 125 % of control.
As for `CCOC(=O)CNC(=O)NC(Cc1ccccc1)C(=O)OCC` (configuration not stated), the survivor count under setting [1] is 5 of 5.

Values taken from PubChem BioAssay AID330 (DTP/NCI, 2004).
